## Results of single-concentration screens

Toxoplasma: 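Assay of Toxoplasma gondii numbers, read through their beta-galactosidase reporter with a colour substrate. Compounds at 10 µM. Higher reads as fewer parasites (inferred from which compounds were picked for retests). Of about 67,000 compounds tested this way, about 260 (0.38%) reached 50% or more in at least one test.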
T. brucei: 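Whole-parasite assay of Trypanosoma brucei over 72 hours; the read-out is not stated. Tested at 30 µM. The record gives no direction; compounds that gave an IC50 in retests scored well above the rest, so higher reads as stronger inhibition. Values scatter widely below zero; nearly all retest evidence comes from the higher of the two concentrations used. About 64,000 compounds were tested under these conditions; 1.5% (about 940) showed 50% or more at least once.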

The filed quantity is “Percent Effect” (%).
The controls that fix the scale are not given in the record; negative values are as filed.
Compounds were drawn at random from those tested, without regard to their results.

compound: Cc1nc2n(n1)CC(NCc1nc(-c3cccs3)no1)CC2 (stereo unspecified)
Toxoplasma: 1.942
T. brucei: -21.34

compound: O=C1N(c2cccc(F)c2)Cc2nc(=O)[nH]n21
Toxoplasma: -2.679
T. brucei: -24.07

compound: Cc1n[nH]c(=O)c2c(NC(=O)CN3CCCC(C(F)(F)F)C3)oc(C)c12 (stereo unspecified)
Toxoplasma: -23.83
T. brucei: -19.9

compound: Cc1cc2nccc(C3CCCN(C(=O)c4cnccn4)C3)n2n1 (stereo unspecified)
Toxoplasma: 10.42
T. brucei: -8.043

compound: CCN(CC)C(=O)CNC(=O)N1CCC(c2ccc(OC)cc2)C1 (stereo unspecified)
Toxoplasma: -8.917
T. brucei: 2.088

compound: CC(=O)NCc1cncc(C2CCCN2C2CCOCC2)n1 (stereo unspecified)
Toxoplasma: -7.242
T. brucei: -9.626

compound: COCCN1CCC2(COCc3cnc(N4CCOCC4)nc32)C1.O=C(O)C(F)(F)F (stereo unspecified)
Toxoplasma: -0.4992
T. brucei: -14.78

compound: C1CCC(NCC2(N3CCOCC3)CCSC2)C1 (stereo unspecified)
Toxoplasma: -1.049
T. brucei: -41.39

compound: CC(C)(NCc1cccc(C(N)=O)c1)c1ccc2c(c1)OCO2
Toxoplasma: 8.578
T. brucei: -1.031

compound: CCN(C)S(=O)(=O)N(CC)Cc1ccc2c(c1)OCO2
Toxoplasma: 3.176
T. brucei: -59.4

compound: O=C(Nc1ccc(Cl)cn1)C1CCCN(CCc2ccncc2)C1 (stereo unspecified)
Toxoplasma: -5.211
T. brucei: -35.73

compound: C[S+]([O-])c1ccc(NC(=O)Cc2cccnc2)cc1F (stereo unspecified)
Toxoplasma: 6.928
T. brucei: -24.26

compound: CC[S+](CC)[c-]1c(=O)[nH]c(=O)n(CCc2ccc(F)cc2)c1=O
Toxoplasma: 9.514

compound: Cc1nc(C)c(C)c(N2CCC(NCCOc3ccccc3)CC2)n1
Toxoplasma: 23.82
T. brucei: -55.5

compound: CCc1nc(CN2CCCN(C(=O)CCSC)CC2)cs1
Toxoplasma: -6.241
T. brucei: -18.05

compound: CCc1cc(C(=O)NCC2CCN(Cc3cccc(C#N)c3)C2)on1 (stereo unspecified)
Toxoplasma: -2.21
T. brucei: 5.063

compound: CCn1cnnc1CN(C)C(=O)c1cc(COc2cccc(F)c2)[nH]n1
Toxoplasma: 1.228
T. brucei: -68.52

compound: CCN(CC)Cc1ccccc1NC(=O)N(C)Cc1ccc(OC)cc1
Toxoplasma: 15.74
T. brucei: -10.96

compound: COc1ccc(CN(C)c2nc3c(cnn3C)c(=O)[nH]2)c(OC)c1
Toxoplasma: -6.043
T. brucei: 0.8445

compound: N#CCCN(CC(F)(F)F)C(=O)c1cc(-n2cccn2)ccn1
Toxoplasma: 5.814
T. brucei: -22.28

compound: Cc1noc(C)c1CN(Cc1cccs1)C1CCS(=O)(=O)C1 (stereo unspecified)
Toxoplasma: 29.82
T. brucei: -4.359

compound: Cn1ccnc1CN1CCC(Cn2cc(-c3ccncc3)nn2)CC1
Toxoplasma: -3.496
T. brucei: -36.57

compound: CCc1ccc(CN2CCCC(CO)(CCOC)C2)cc1 (stereo unspecified)
Toxoplasma: 0.1595
T. brucei: -29.98

Some entries from above, unchanged:

compound,Toxoplasma,T. brucei
COCCN1CCC2(COCc3cnc(N4CCOCC4)nc32)C1.O=C(O)C(F)(F)F (stereo unspecified),-0.4992,-14.78
CCN(CC)C(=O)CNC(=O)N1CCC(c2ccc(OC)cc2)C1 (stereo unspecified),-8.917,2.088

The values are deposited in ChEMBL (CHEMBL3988442, “University of Dundee, Small-Polar-MMV Screening Library” (2021)).